The values that follow come from publication PMC6196983, “The Native Monomer of Bacillus Pumilus Ribonuclease Does Not Exist Extracellularly” (BioMed Research International, 2018).

Results are given in words; binding and its absence hold for the method and conditions named.

Experiment [1] concerns the target binase, secreted guanyl-preferring ribonuclease of Bacillus pumilus (Bacillus pumilus) (UniProt P00649). The experiment is described as follows: condition: only less than 50 ng of enzyme in the presence of 0.1% SDS; SDS-PAGE; binase at nanoconcentrations (less than 50 ng) in the presence of 0.1% SDS; SDS/protein ratio more than 1000; both purified.
For experiment [2] the target is unchanged. The experiment is described as follows: condition: only less than 50 ng of enzyme, after electrophoresis with SDS; zymogram (in-gel detection of catalytic activity after PAGE); binase at nanoconcentrations (less than 50 ng); both purified.

B1: binase, secreted guanyl-preferring ribonuclease of Bacillus pumilus (enzyme, UniProt P00649 54-162, looked up)
chain: AVINTFDGVADYLIRYKRLPDNYITKSQASALGWVASKGNLAEVAPGKSIGGDVFSNREGRLPSASGRTWREADINYVSGFRNADRLVYSSDWLIYKTTDHYATFTRIR
notes: binase, secreted ribonuclease of Bacillus pumilus (formerly Bacillus intermedius); also called B. pumilus secreted RNase; Bacillus intermedius RNase; source: isolated from B. pumilus culture fluid, purified
As for B1, the binding result in experiment [1] and in experiment [2] was “no binding” throughout.
